{"source": "patent US20160199392A1", "about": "“METHOD FOR INDIVIDUALIZED DRUG THERAPY” (Autotelic LLC, priority 2015, published 2016)", "origin": "cited, not measured here", "key": {"[1]": {"test_system": "Signs and Symptoms of Osteoarthritis", "details": "cited from earlier work; for Withdrawal due to treatment failure (%): 12 weeks; for Patient global assessment condition improved (%) / Patient global assessment condition worsened (%) / Physician's global assessment condition improved (%) / Physician's global assessment condition worsened (%): at 12 weeks"}, "pain": {"test_system": "pain", "details": "elderly patients, 100 mg doses compared with 200 mg doses over a six week period; cited from earlier work"}}, "note": "Like-named read-outs stand apart in the source and are kept apart here. At least one structure is not confirmed: it was looked up by name or label, or the drawing left a doubt. Marks after values point to notes of the source that are not given here.", "data": [{"compound": "Cc1ccc(-c2cc(C(F)(F)F)nn2-c2ccc(S(N)(=O)=O)cc2)cc1", "note": "[celecoxib, Celecoxib]", "values": [{"measurement": "Withdrawal due to treatment failure (%)", "setting": "[1]; 50 mg BID, n = 203", "value": 30, "unit": "%"}, {"measurement": "Patient global assessment condition improved (%)", "setting": "[1]; 50 mg BID, n = 203", "value": "27‡ %"}, {"measurement": "Patient global assessment condition worsened (%)", "setting": "[1]; 50 mg BID, n = 203", "value": "<1", "unit": "%"}, {"measurement": "Physician's global assessment condition improved (%)", "setting": "[1]; 50 mg BID, n = 203", "value": "30‡ %"}, {"measurement": "Physician's global assessment condition worsened (%)", "setting": "[1]; 50 mg BID, n = 203", "value": 2, "unit": "%"}, {"measurement": "Withdrawal due to treatment failure (%)", "setting": "[1]; 100 mg BID, n = 197", "value": "20‡// %"}, {"measurement": "Patient global assessment condition improved (%)", "setting": "[1]; 100 mg BID, n = 197", "value": "35‡ %"}, {"measurement": "Patient global assessment condition worsened (%)", "setting": "[1]; 100 mg BID, n = 197", "value": 1, "unit": "%"}, {"measurement": "Physician's global assessment condition improved (%)", "setting": "[1]; 100 mg BID, n = 197", "value": "36‡ %"}, {"measurement": "Physician's global assessment condition worsened (%)", "setting": "[1]; 100 mg BID, n = 197", "value": 2, "unit": "%"}, {"measurement": "efficacy of higher doses compared", "setting": "[1]; 100 mg and 200 mg twice a day", "value": "similarly efficacious"}, {"measurement": "Withdrawal due to treatment failure (%)", "setting": "[1]; 200 mg BID, n = 202", "value": "24‡ %"}, {"measurement": "Patient global assessment condition improved (%)", "setting": "[1]; 200 mg BID, n = 202", "value": "36‡ %"}, {"measurement": "Patient global assessment condition worsened (%)", "setting": "[1]; 200 mg BID, n = 202", "value": "<1", "unit": "%"}, {"measurement": "Physician's global assessment condition improved (%)", "setting": "[1]; 200 mg BID, n = 202", "value": "32‡ %"}, {"measurement": "Physician's global assessment condition worsened (%)", "setting": "[1]; 200 mg BID, n = 202", "value": "<1", "unit": "%"}, {"measurement": "reductions in pain", "setting": "pain", "value": "almost identical reductions in pain"}]}]}
